Data as given in PubChem BioAssay AID743121 (NCATS, 2013).
The deposit covers about 26,000 reagents; shown is an unselected part. 167 of all reagents (0.63%) count as active. 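Calls are per gene from RSA p-values that are not deposited; an individual active-marked siRNA can sensitise only weakly.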 Entries without a mark were called inactive. The numbers tell different reagents against one gene apart. Further read-outs or replicates are left out here.

Aim: 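Knock-downs that sensitise breast cancer cells to camptothecin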 (primary screen)
Cell system: MDA-MB-231 cells, a human breast cancer line
Knock-down reagent: single siRNA against human genes, 20 nM siRNA (0.8 pmol per well)
Time to read-out: 120 h (drug added 48 h after transfection, read 72 h later)
Challenge: camptothecin 20 nM (about EC30) for 72 h; vehicle 0.1% DMSO in parallel plates
Detection: 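Cell viability by ATP luminescence (CellTiter-Glo) as % of non-targeting siRNA wells, and the log2 ratio of viability without drug over viability with camptothecin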
Scale: log2 vehicle/camptothecin viability: higher = stronger sensitisation to camptothecin; viability with camptothecin: higher = more viable cells
Units: viability with camptothecin in % of control
Hit rule: 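Each gene scored by redundant siRNA activity (RSA) over its individual siRNA ratios; a gene is called active at p < 0.001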

GAD1 #1 gave log2 vehicle/camptothecin viability -0.624; viability with camptothecin 71.7.
For GAD1 #2, the values are log2 vehicle/camptothecin viability -0.00968; viability with camptothecin 65.9.
Silencing of GAD1 #3 gave: log2 vehicle/camptothecin viability -0.0898; viability with camptothecin 98.6.
GAD1 #4 gave log2 vehicle/camptothecin viability -0.442; viability with camptothecin 73.9.
After knock-down of MAPKAPK5 #1, the record shows log2 vehicle/camptothecin viability 0.0217; viability with camptothecin 70.6.
Against MAPKAPK5 #2, the entry reads log2 vehicle/camptothecin viability -0.121; viability with camptothecin 99.4.
Against MAPKAPK5 #3, the entry reads log2 vehicle/camptothecin viability -0.361; viability with camptothecin 79.7.
With knock-down of MAPKAPK5 #4, the record shows log2 vehicle/camptothecin viability -0.394; viability with camptothecin 42.4.
With knock-down of TRPM8 #1 the results were log2 vehicle/camptothecin viability -0.736; viability with camptothecin 112.
For TRPM8 #2, the entry reads log2 vehicle/camptothecin viability -0.145; viability with camptothecin 73.
After knock-down of TRPM8 #3, the screen gave log2 vehicle/camptothecin viability -0.3; viability with camptothecin 61.4.
TRPM8 #4 showed log2 vehicle/camptothecin viability -0.255; viability with camptothecin 67.4.
After knock-down of HNRNPA2B1 #1 the results were log2 vehicle/camptothecin viability 0.248; viability with camptothecin 63.7.
With knock-down of HNRNPA2B1 #2, the screen gave log2 vehicle/camptothecin viability 0.166; viability with camptothecin 62.8.
HNRNPA2B1 #3 showed log2 vehicle/camptothecin viability 0.159; viability with camptothecin 70.3.
With knock-down of HNRNPA2B1 #4 the results were log2 vehicle/camptothecin viability 0.0191; viability with camptothecin 97.9.
Silencing of CYP1A2 #1 gave: log2 vehicle/camptothecin viability -0.0641; viability with camptothecin 82.9.
CYP1A2 #2 scored log2 vehicle/camptothecin viability -0.0252; viability with camptothecin 99.1.
Knock-down of CYP1A2 #3 gave: log2 vehicle/camptothecin viability -0.32; viability with camptothecin 73.6.
Depletion of CYP1A2 #4 resulted in: log2 vehicle/camptothecin viability -0.309; viability with camptothecin 65.

Entries listed so far whose target name starts with C or c:
CYP1A2 #1 — log2 vehicle/camptothecin viability = -0.0641; viability with camptothecin = 82.9
CYP1A2 #2 — log2 vehicle/camptothecin viability = -0.0252; viability with camptothecin = 99.1
CYP1A2 #3 — log2 vehicle/camptothecin viability = -0.32; viability with camptothecin = 73.6
CYP1A2 #4 — log2 vehicle/camptothecin viability = -0.309; viability with camptothecin = 65

Additional entries follow:
Against GRHPR #1 the deposit lists log2 vehicle/camptothecin viability -0.062; viability with camptothecin 67.4.
After knock-down of GRHPR #2, the screen gave log2 vehicle/camptothecin viability -0.541; viability with camptothecin 39.7.
GRHPR #3 gave log2 vehicle/camptothecin viability -0.454; viability with camptothecin 93.3.
Silencing of OXER1 #1 gave: log2 vehicle/camptothecin viability -0.0898; viability with camptothecin 97.3.
Silencing of OXER1 #2 resulted in: log2 vehicle/camptothecin viability -0.475; viability with camptothecin 85.2.
With knock-down of OXER1 #3, the screen gave log2 vehicle/camptothecin viability 0.469; viability with camptothecin 9.
With knock-down of OXER1 #4, the screen gave log2 vehicle/camptothecin viability 0.522; viability with camptothecin 55.4.
For MAP2K1 #1, the values are log2 vehicle/camptothecin viability 0.11; viability with camptothecin 93.4.
After knock-down of MAP2K1 #2 the results were log2 vehicle/camptothecin viability -0.449; viability with camptothecin 65.3.
With knock-down of MAP2K1 #3, the record shows log2 vehicle/camptothecin viability 0.218; viability with camptothecin 65.5.
After knock-down of MAP2K1 #4, the screen gave log2 vehicle/camptothecin viability -0.0497; viability with camptothecin 75.2.
With knock-down of CDH20 #1 the results were log2 vehicle/camptothecin viability -0.186; viability with camptothecin 39.1.
For CDH20 #2, the entry reads log2 vehicle/camptothecin viability -0.462; viability with camptothecin 85.3.
Depletion of CDH20 #3 resulted in: log2 vehicle/camptothecin viability -0.176; viability with camptothecin 84.
Against KCNK5 #1, the values are log2 vehicle/camptothecin viability 0.164; viability with camptothecin 38.
Against KCNK5 #2 the deposit lists log2 vehicle/camptothecin viability -0.341; viability with camptothecin 71.6.
With knock-down of KCNK5 #3, the screen gave log2 vehicle/camptothecin viability 0.353; viability with camptothecin 50.
With knock-down of KCNK5 #4, the screen gave log2 vehicle/camptothecin viability -0.153; viability with camptothecin 88.9.
